Experimental data published in PMC12372870.
These are yes or no findings as the source states them, for the method shown. Binding seen in cells or lysates may run through a third protein. Some entries that bind do so weakly or less than the wild type. Sequences can lack the tags named with a protein.

How the values were obtained:
[1] = biological target: T1, HA-tagged wtSFPQ (splicing factor proline- and glutamine-rich, canonical isoform) (human) (UniProt P23246); assay: co-IP; anti-HA magnetic beads on lysates of N2A cells expressing HA-SFPQ variants (empty vector as negative control), overnight at 4°C; 50 mM Hepes pH 7.4, 150 mM NaCl, 1% IGEPAL, 1 mM EDTA; Western blot; cells untreated or under sodium arsenite-induced oxidative stress
T1 sequence: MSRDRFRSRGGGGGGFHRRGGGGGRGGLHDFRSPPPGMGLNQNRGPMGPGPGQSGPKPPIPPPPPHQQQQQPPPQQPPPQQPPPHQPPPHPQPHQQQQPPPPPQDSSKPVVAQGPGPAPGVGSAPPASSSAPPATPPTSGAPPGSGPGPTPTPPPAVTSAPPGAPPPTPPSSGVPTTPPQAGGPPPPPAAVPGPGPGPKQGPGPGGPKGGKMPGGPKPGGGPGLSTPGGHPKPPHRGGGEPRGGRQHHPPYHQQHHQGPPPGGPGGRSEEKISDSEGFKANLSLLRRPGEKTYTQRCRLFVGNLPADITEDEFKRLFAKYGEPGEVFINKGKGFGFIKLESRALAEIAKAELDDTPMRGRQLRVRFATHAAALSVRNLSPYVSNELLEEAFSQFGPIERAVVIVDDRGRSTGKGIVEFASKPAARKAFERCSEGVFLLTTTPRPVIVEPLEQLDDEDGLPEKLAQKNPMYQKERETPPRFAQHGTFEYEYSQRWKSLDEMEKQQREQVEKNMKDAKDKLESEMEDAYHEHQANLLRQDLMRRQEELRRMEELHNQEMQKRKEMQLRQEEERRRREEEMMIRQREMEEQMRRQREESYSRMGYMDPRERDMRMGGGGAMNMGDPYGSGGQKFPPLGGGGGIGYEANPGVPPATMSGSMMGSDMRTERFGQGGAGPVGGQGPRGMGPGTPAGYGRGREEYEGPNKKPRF

[2] = biological target: T2, HA-tagged altSFPQ (alternative SFPQ isoform lacking the C-terminal nuclear localization signal) (human) (UniProt P23246); assay: as above
T2 sequence: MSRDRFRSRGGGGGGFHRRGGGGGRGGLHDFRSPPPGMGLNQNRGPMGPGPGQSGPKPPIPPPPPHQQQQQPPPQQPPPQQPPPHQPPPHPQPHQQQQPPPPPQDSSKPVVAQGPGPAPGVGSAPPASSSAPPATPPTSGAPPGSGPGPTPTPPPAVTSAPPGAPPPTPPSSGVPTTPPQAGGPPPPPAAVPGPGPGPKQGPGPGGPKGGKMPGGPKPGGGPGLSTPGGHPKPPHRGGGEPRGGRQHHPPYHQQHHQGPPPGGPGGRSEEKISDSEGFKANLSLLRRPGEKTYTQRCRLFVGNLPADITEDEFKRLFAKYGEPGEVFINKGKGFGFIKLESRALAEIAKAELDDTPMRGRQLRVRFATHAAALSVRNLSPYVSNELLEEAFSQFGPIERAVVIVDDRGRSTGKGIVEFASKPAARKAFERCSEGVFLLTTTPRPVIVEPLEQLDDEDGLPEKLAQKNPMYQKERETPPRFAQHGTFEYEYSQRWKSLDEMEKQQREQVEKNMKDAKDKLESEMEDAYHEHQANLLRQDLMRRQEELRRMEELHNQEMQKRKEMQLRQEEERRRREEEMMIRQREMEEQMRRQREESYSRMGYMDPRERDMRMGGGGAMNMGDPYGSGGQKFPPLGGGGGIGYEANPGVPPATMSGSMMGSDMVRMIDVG

B1: NONO (protein, UniProt Q99K48 1-473)
chain: MQSNKAFNLEKQNHTPRKHHQHHHQQHHQQQQQQQQQQPPPPIPANGQQASSQNEGLTIDLKNFRKPGEKTFTQRSRLFVGNLPPDITEEEMRKLFEKYGKAGEVFIHKDKGFGFIRLETRTLAEIAKVELDNMPLRGKQLRVRFACHSASLTVRNLPQYVSNELLEEAFSVFGQVERAVVIVDDRGRPSGKGIVEFSGKPAARKALDRCSEGSFLLTTFPRPVTVEPMDQLDDEEGLPEKLVIKNQQFHKEREQPPRFAQPGSFEYEYAMRWKALIEMEKQQQDQVDRNIKEAREKLEMEMEAARHEHQVMLMRQDLMRRQEELRRMEELHNQEVQKRKQLELRQEEERRRREEEMRRQQEEMMRRQQEGFKGTFPDAREQEIRMGQMAMGGAMGINNRGAMPPAPVPPGTPAPPGPATMMPDGTLGLTPPTTERFGQAATMEGIGAIGGTPPAFNRPAPGAEFAPNKRRRY
- binding [1]: binds
- binding [2]: binds
